# Screening data, single-dose tests

Chains of the proteins cited; added tags and fusions are not shown. Residues count along the entry.
UniProt I6X8D2, whole entry: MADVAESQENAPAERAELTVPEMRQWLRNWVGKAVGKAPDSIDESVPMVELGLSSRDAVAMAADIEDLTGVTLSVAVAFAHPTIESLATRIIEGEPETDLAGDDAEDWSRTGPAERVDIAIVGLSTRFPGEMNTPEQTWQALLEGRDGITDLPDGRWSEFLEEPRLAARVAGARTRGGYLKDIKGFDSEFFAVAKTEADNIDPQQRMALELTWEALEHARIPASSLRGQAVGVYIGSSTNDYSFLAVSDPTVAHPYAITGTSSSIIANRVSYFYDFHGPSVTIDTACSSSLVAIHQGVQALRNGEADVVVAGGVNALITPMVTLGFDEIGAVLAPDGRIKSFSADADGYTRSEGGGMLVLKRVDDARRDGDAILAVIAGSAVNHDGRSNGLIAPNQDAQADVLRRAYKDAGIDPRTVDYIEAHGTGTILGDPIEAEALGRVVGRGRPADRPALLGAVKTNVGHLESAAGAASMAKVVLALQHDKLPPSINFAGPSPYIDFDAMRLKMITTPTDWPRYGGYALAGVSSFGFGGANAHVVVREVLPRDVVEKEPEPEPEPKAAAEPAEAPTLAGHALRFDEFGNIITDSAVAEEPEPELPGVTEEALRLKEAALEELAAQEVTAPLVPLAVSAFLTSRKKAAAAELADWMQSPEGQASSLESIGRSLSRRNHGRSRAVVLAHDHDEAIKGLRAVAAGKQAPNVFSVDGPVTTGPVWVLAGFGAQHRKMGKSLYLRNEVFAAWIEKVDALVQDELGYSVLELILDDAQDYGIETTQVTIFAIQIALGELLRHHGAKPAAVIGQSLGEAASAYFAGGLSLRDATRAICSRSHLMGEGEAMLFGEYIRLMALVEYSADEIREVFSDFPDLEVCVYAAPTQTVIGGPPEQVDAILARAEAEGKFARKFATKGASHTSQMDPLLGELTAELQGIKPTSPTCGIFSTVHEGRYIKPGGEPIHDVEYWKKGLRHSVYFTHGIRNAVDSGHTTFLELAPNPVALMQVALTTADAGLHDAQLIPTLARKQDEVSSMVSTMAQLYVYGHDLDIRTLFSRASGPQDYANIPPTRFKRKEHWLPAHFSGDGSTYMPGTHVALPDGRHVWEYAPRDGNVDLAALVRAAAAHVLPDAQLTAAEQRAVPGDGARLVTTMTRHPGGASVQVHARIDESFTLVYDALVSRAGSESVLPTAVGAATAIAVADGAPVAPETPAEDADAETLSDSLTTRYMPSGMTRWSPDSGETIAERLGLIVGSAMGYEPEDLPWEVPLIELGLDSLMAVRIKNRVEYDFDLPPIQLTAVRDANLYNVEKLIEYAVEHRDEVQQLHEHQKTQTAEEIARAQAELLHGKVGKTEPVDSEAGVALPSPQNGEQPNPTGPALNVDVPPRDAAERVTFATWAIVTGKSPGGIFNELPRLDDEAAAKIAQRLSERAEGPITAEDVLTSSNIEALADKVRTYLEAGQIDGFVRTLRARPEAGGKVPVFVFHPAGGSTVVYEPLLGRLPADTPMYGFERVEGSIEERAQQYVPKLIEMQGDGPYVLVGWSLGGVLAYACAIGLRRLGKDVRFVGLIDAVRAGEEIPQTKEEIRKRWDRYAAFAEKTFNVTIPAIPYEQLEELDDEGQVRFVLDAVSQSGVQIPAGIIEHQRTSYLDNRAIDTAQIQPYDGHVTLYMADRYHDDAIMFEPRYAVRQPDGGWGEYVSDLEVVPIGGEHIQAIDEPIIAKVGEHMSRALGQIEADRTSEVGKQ
UniProt Q8IDJ8, 1-583: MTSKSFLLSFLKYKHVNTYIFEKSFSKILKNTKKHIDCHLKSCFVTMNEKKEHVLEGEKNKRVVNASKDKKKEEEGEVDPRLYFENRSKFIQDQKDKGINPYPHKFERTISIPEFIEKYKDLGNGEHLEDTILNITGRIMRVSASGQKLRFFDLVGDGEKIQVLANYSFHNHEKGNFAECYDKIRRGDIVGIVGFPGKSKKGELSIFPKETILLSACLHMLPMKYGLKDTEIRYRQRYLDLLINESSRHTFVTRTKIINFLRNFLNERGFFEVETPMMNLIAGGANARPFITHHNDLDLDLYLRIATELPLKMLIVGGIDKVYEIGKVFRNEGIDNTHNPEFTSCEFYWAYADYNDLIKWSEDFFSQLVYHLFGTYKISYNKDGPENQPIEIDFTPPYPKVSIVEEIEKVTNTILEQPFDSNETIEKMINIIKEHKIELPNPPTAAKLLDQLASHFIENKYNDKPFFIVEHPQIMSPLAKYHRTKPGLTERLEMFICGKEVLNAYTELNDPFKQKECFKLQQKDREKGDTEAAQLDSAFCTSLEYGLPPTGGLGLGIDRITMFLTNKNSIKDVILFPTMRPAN
UniProt A4I591, 1-473: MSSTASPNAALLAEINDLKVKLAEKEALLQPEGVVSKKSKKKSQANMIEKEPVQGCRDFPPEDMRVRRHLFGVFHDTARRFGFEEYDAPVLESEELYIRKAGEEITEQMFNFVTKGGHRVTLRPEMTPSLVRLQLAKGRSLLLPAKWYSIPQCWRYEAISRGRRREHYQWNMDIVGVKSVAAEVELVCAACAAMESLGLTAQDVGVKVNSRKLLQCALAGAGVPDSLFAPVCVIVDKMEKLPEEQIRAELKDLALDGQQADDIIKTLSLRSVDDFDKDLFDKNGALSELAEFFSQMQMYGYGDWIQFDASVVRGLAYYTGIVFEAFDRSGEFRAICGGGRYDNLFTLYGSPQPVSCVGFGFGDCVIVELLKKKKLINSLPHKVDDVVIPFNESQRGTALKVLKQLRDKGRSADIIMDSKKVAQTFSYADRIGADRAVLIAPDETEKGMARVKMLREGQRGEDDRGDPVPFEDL
UniProt Q4DA54, 1-478: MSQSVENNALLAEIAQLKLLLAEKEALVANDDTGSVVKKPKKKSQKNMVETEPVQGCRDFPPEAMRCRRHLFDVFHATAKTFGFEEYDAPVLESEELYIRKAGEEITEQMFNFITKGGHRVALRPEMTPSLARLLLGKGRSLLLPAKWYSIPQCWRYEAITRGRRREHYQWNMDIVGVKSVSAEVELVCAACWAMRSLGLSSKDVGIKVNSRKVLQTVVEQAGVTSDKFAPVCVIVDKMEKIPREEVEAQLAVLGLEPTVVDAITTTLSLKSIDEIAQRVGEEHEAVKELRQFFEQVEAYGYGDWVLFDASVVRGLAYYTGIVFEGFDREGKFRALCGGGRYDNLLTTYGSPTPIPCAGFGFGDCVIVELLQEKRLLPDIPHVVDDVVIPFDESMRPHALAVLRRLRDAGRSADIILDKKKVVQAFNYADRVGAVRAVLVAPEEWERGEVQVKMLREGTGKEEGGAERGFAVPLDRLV

Source: ChEMBL document CHEMBL3988442, “University of Dundee, Small-Polar-MMV Screening Library” (2021).

Pks13 thioesterase: 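Enzyme assay of the thioesterase domain of polyketide synthase 13; the read-out is not stated. Target: Polyketide synthase Pks13, Mycobacterium tuberculosis (UniProt I6X8D2). Compounds at 30 µM. Higher reads as stronger inhibition (inferred from which compounds were picked for retests). About 67,000 compounds were tested under these conditions; 0.46% (about 300) showed 50% or more at least once.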
PfKRS1: 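Enzyme assay of the cytosolic lysyl-tRNA synthetase in 384-well plates, read by luminescence. Target: Lysine-tRNA ligase, Plasmodium falciparum 3D7 (UniProt Q8IDJ8). Compounds at 30 µM. Higher reads as stronger inhibition, judged from the few compounds that gave an IC50. Size under these conditions: about 69,000 compounds, about 49 of them at 50% or above in at least one test.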
LiHisRS: 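Histidine-tRNA ligase, Leishmania infantum (UniProt A4I591). Enzyme assay of histidyl-tRNA synthetase; the read-out is not stated. Tested at 30 µM. Higher reads as stronger inhibition (inferred: compounds with an IC50 in retests scored well above the rest). The assay is labelled LdHisRS but filed under L. infantum. About 69,000 compounds were tested under these conditions; 0.6% (about 410) showed 50% or more at least once.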
TcHisRS: 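Histidine-tRNA ligase, Trypanosoma cruzi CL Brener (UniProt Q4DA54). Enzyme assay of histidyl-tRNA synthetase; the read-out is not stated. Tested at 30 µM. Higher reads as stronger inhibition (inferred: compounds with an IC50 in retests scored well above the rest). About 69,000 compounds were tested under these conditions; 0.045% (about 31) showed 50% or more at least once.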

The filed quantity is “Percent Effect” (%). The record does not define 0% and 100%; most values in the screen are far below 50% and negative numbers occur (in some assays of this library far below -100). The compounds are a random part of those screened.

Result for Cc1ccccc1CN1CCCN(CCN2CCOC2=O)CC1 was Pks13 thioesterase: -30.07%; PfKRS1: 1.203%; LiHisRS: 9.375%; TcHisRS: 12.77%. Cc1cccc(CN2CC[C@H]3C[C@@H](C)O[C@@H]3C2)n1 read Pks13 thioesterase: -7.12%; PfKRS1: -3.108%; LiHisRS: -6.422%; TcHisRS: 10.92%. Cc1nc(C2CCCN2C(=O)Cc2cccc(F)c2)nc(O)c1C (centres unmarked) read Pks13 thioesterase: -17.97%; PfKRS1: -0.6375%; LiHisRS: -11.58%; TcHisRS: 2.985%. CCN(CC)Cc1nnc2sc(C(C)Oc3ccccc3)nn12 (centres unmarked) gave Pks13 thioesterase: -3.332%; PfKRS1: 1.921%; LiHisRS: 5.747%; TcHisRS: 4.124%. Oc1cc(C2CCNCC2)nc(-c2ccsc2)n1 read Pks13 thioesterase: 10.32%; PfKRS1: 1.739%; LiHisRS: -12.77%; TcHisRS: 14.66%. CC(C)NC(=O)N1CCN(S(=O)(=O)C2CC2)CC2(CC(=O)N(C)C2)C1 (centres unmarked) read Pks13 thioesterase: -27.55%; PfKRS1: 0.4042%; LiHisRS: 14.56%; TcHisRS: 1.087%. With CCOc1ncccc1NC(=O)NC1CCN(S(C)(=O)=O)CC1 the screen gave Pks13 thioesterase: -5.675%; PfKRS1: -8.84%; LiHisRS: -3.125%; TcHisRS: 4.183%.

FC(F)(F)CCc1ccnc(N2CCN(Cc3ccccn3)CC2)n1 gave Pks13 thioesterase: 9.995%; PfKRS1: -6.344%; LiHisRS: 28.95%; TcHisRS: -1.676%. With COCc1ccc(CNc2cnn(C(C)(C)C)c(=O)c2Cl)cc1 the screen gave PfKRS1: 9.422%; LiHisRS: 19.74%; TcHisRS: 4.433%. O=C(NCCCn1nc2ccccn2c1=O)NC1CCC(O)CC1 (centres unmarked) read Pks13 thioesterase: -8.293%; PfKRS1: -3.234%; LiHisRS: 0%; TcHisRS: 2.479%. CC(C)c1nc(C2CCCN(C(=O)CN(C)S(C)(=O)=O)C2)no1 (centres unmarked) read Pks13 thioesterase: -8.206%; PfKRS1: 4.387%; LiHisRS: 6.494%; TcHisRS: 3.448%. COCC(=O)Nc1ccnn1-c1ccc(Cl)cc1 gave Pks13 thioesterase: -34.36%; PfKRS1: 9.637%; LiHisRS: 18.99%; TcHisRS: 2.155%. For Cc1cc(CN2CCc3nc(N4CCOCC4)nc(O)c3CC2)c(C)s1 the result was Pks13 thioesterase: 2.811%; PfKRS1: 0.4213%; LiHisRS: 9.859%; TcHisRS: 4.615%. Result for CCOC(=O)NC(=O)CSC(C)c1ccccc1F (centres unmarked) was Pks13 thioesterase: -32.22%; PfKRS1: 7.766%; LiHisRS: 17.74%; TcHisRS: 8.046%.

Cc1ccc(N2CC3(COCCN(Cc4nccs4)C3)OCC2=O)s1 (centres unmarked) read Pks13 thioesterase: -7.623%; PfKRS1: 3.162%; LiHisRS: 12.62%; TcHisRS: 4.348%. For Cc1cccc(CN2CCCC3(CCC(=O)N3CCN(C)C)CC2)n1 (centres unmarked) the result was Pks13 thioesterase: -34.48%; PfKRS1: 2.808%; LiHisRS: 21.1%; TcHisRS: 4.327%. With CCS(=O)(=O)N1CCC(NC(=O)c2cc(C(C)C)ccc2O)CC1 the screen gave Pks13 thioesterase: -12.1%; PfKRS1: 2.416%; LiHisRS: 13.89%; TcHisRS: 5.572%. Cc1cc(C(=O)N2CCN(Cc3ccsc3)CC2)n(C)n1 gave Pks13 thioesterase: -12.32%; PfKRS1: 1.08%; LiHisRS: 8.621%; TcHisRS: 2.26%. Cn1nnnc1SCC1COc2ccccc2O1 (centres unmarked) gave Pks13 thioesterase: 19.37%; PfKRS1: 2.187%; LiHisRS: 18.56%; TcHisRS: 2.312%. With COc1ccncc1NCc1cscn1 the screen gave Pks13 thioesterase: -51.48%; PfKRS1: 3.328%; LiHisRS: 8.333%; TcHisRS: 3.409%. For COc1ccc(N(Cc2ccco2)C(=O)COC(C)C)cc1F the result was Pks13 thioesterase: -3.24%; PfKRS1: 9.656%; LiHisRS: 20.59%; TcHisRS: 8.995%.

Once more, the final 2:

COc1ccncc1NCc1cscn1 read Pks13 thioesterase: -51.48%; PfKRS1: 3.328%; LiHisRS: 8.333%; TcHisRS: 3.409%.
COc1ccc(N(Cc2ccco2)C(=O)COC(C)C)cc1F read Pks13 thioesterase: -3.24%; PfKRS1: 9.656%; LiHisRS: 20.59%; TcHisRS: 8.995%.